Measurements: the supplement of paper PMC8104966
This is one part of the list. Single values are uncertain here, since repeats match poorly.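 Fusion between ACE2-bearing and full-length-spike-bearing U2OS cells was measured by imaging as the percentage of nuclei with both cell types' fluorescent markers. An inhibitory hit is a non-toxic compound whose fusion z-score is below -3, more than three standard deviations beneath the plate's DMSO wells.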

These compounds were tested on U2OS ACE2 x SARS-CoV-2 spike co-culture (assay: cell-cell fusion (fraction fused) z-score vs plate DMSO control; higher = more fusion). Conditions: 30 µM; 5 h; toxicity class: non-toxic, passed QC.

Row | Structure (SMILES) | cell-cell fusion (z-score)
1 | C=CC[N+]1([C@H]2C[C@H]3[C@@H]4CC[C@H]5C[C@H](O)[C@@H](N6CCOCC6)C[C@]5(C)[C@H]4CC[C@]3(C)[C@H]2OC(C)=O)CCCC1.[Br-] [Rocuronium bromide] | inactive: 2.71
2 | O=c1onc2cnc3ccccc3n12 | inactive: 3.35
3 | Nc1cccc2c1C(=O)N(C1CCC(=O)NC1=O)C2=O (stereo unspecified) [Pomalidomide] | inactive: 1.38
4 | C[C@@H]1O[C@@H](O[C@H]2[C@H](Oc3cc(O)c4c(=O)cc(-c5ccc(O)cc5)oc4c3)O[C@H](CO)[C@@H](O)[C@@H]2O)[C@H](O)[C@H](O)[C@H]1O | inactive: 1.6
5 | Cc1ccc(C(=O)N(CCCN)[C@@H](c2nc3cc(Cl)ccc3c(=O)n2Cc2ccccc2)C(C)C)cc1 | active: -3.16
6 | Cn1c(=O)c2c(ncn2C)n(C)c1=O | inactive: 1.19
7 | Cn1c(=O)c2c(ncn2C)n(C)c1=O [Caffeine] | inactive: 1.16
8 | C=C(C)[C@H]1Cc2c(ccc3c2O[C@@H]2COc4cc(OC)c(OC)cc4[C@@H]2C3=O)O1 [Rotenone] | inactive: -0.311
9 | NNC(=O)c1ccncc1 [Isoniazid] | inactive: 2.33
10 | CC(C)c1nc(CN(C)C(=O)N[C@H](C(=O)N[C@@H](Cc2ccccc2)C[C@H](O)[C@H](Cc2ccccc2)NC(=O)OCc2cncs2)C(C)C)cs1 [Ritonavir] | inactive: 3.5
11 | O=c1c(O)c(-c2ccc(O)c(O)c2)oc2c(O)c(O)cc(O)c12 | inactive: 1.55
12 | NC[C@H](O)c1ccc(O)c(O)c1 | inactive: -0.495
13 | O=C(N[C@@H](Cc1ccccc1)C(=O)CCl)OCc1ccccc1 [Z-L-Phe chloromethyl ketone] | inactive: 1.57
14 | CC(=O)CC1CCCCN1.Cl (stereo unspecified) | inactive: 1.98
15 | O.O=C(O)[C@@H]1[C@H]2C[C@H]3c4[nH]c5ccccc5c4CCN3C[C@@H]2CC[C@@H]1O | inactive: 2.53
16 | Cl.NCCCCC(=O)O | inactive: 3.48
17 | Cl.NCCCCC(=O)O [5-Aminovaleric acid hydrochloride] | inactive: 1.93
18 | CC1=C(/C=C/C(C)=C/C=C/C(C)=C/C=C/C=C(C)/C=C/C=C(C)/C=C/C2=C(C)CCCC2(C)C)C(C)(C)CCC1 [Beta-Carotene] | inactive: 2.58

2 entries from above in a different format.
Row,Structure (SMILES),cell-cell fusion (z-score)
11,O=c1c(O)c(-c2ccc(O)c(O)c2)oc2c(O)c(O)cc(O)c12,inactive: 1.55
12,NC[C@H](O)c1ccc(O)c(O)c1,inactive: -0.495

(further entries)

Row | Structure (SMILES) | cell-cell fusion (z-score)
19 | N=C(N)NN.N=C(N)NN.O=S(=O)(O)O [Aminoguanidine hemisulfate] | inactive: 1.55
20 | Nc1nc(F)nc2c1ncn2[C@@H]1O[C@H](COP(=O)(O)O)[C@@H](O)[C@@H]1O | inactive: 4.18
21 | CC(C)NCC(O)c1cc(O)cc(O)c1.CC(C)NCC(O)c1cc(O)cc(O)c1.O=S(=O)(O)O (stereo unspecified) [Orciprenaline sulfate] | inactive: -0.423
22 | COP(=O)(OC)C(O)C(Cl)(Cl)Cl (stereo unspecified) | inactive: 1.49
23 | COc1ccc2oc(-c3ccccc3OC)cc(=O)c2c1 | inactive: 2.9
24 | Cl.NCC1(CC(=O)O)CCCCC1 [Gabapentin HCl] | inactive: 1.9
25 | [NH2][Pt]([NH2])([Cl])[Cl] [Cisplatin] | inactive: 1.87
26 | NCC(=O)O [glycine] | inactive: 1.31
27 | CS(=O)(=O)c1ccc([C@@H](O)[C@@H](CO)NC(=O)C(Cl)Cl)cc1 | inactive: 2.66
28 | CCCCCC(C)N.O=S(=O)(O)O (stereo unspecified) | inactive: 2.72
29 | O=C(O)C(O)C(O)C(=O)O.OCc1cccnc1 (stereo unspecified) | inactive: 1.43
30 | [Cl-].[NH2][Pt]([NH2])([Cl])[n+]1ccccc1 | inactive: 2.16
31 | CCCCCc1ccc(/C=C/[C@H](O)[C@@H](CO)NC)cc1.Cl | inactive: 0.598
32 | O=C1OC(CN2CCOCC2)CN1/N=C/c1ccc([N+](=O)[O-])o1 (stereo unspecified) | inactive: 0.449
33 | CC(Oc1ccc(Cl)cc1Cl)C(=O)O (stereo unspecified) | inactive: 4.42
34 | Clc1ccc(CCC(Cn2ccnc2)Sc2c(Cl)cccc2Cl)cc1 (stereo unspecified) | inactive: 2.53
35 | CCc1cc(Cl)c(OC)c(C(=O)NCC2CCCN2CC)c1O.Cl (stereo unspecified) | inactive: -1.16
36 | Cn1cncc1[C@@](N)(c1ccc(Cl)cc1)c1ccc2c(c1)c(-c1cccc(Cl)c1)cc(=O)n2C [Tipifarnib (Zarnestra)] | inactive: 0.77
